Measured values: article PMC12611102
Results are given in words; binding and its absence hold for the method and conditions named. Some results given as binding are weak or reduced against the parent protein; the word gives no strength. Where a sequence is shown, tags or fusion partners need not be part of it. Each block holds one binder with its values, some of them ahead of it.

How the values were obtained:
[1] = target: T1, ScIst1 (S. cerevisiae Ist1), Gal4 DNA binding domain fusion (S. cerevisiae) (UniProt P53843); assay: two-hybrid; Gal4 BD (pGBT9) and AD (pGAD424) fusions in yeast PJ69-4A; quantitative β-galactosidase (LacZ reporter) activity; average of three independent experiments
T1 sequence: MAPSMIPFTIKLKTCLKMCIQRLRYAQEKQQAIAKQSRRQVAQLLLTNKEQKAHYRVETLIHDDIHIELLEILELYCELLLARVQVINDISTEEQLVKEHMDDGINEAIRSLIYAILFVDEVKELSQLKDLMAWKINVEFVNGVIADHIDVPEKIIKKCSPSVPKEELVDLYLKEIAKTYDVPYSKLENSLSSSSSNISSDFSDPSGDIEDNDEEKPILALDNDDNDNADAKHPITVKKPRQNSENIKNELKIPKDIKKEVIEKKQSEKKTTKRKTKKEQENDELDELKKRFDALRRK

[2] = target: T2, ScVps46 (S. cerevisiae Vps46), Gal4 activation domain fusion (S. cerevisiae) (UniProt P69771); assay: two-hybrid; Gal4 BD and AD fusions in yeast PJ69-4A; growth spotted on SD leu-trp-his- with 2.5 mM 3-AT and on leu-trp-ade- plates, 3 days at 28°C; repeated with reversal of BD and AD fusions
T2 sequence: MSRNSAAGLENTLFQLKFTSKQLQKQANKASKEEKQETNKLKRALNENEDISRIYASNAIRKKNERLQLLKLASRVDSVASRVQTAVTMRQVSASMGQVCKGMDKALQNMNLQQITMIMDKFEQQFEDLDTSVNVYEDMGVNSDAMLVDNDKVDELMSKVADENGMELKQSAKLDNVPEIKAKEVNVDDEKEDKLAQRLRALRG

binding [1]: binds
B1: ScVps46 (S. cerevisiae Vps46), Gal4 activation domain fusion (protein, UniProt P69771 1-204)
chain: T2 sequence

binding [1]: binds
binding [2]: binds
B2: ScVps4 (S. cerevisiae Vps4), Gal4 activation domain fusion (protein, UniProt P52917 1-437)
chain: MSTGDFLTKGIELVQKAIDLDTATQYEEAYTAYYNGLDYLMLALKYEKNPKSKDLIRAKFTEYLNRAEQLKKHLESEEANAAKKSPSAGSGSNGGNKKISQEEGEDNGGEDNKKLRGALSSAILSEKPNVKWEDVAGLEGAKEALKEAVILPVKFPHLFKGNRKPTSGILLYGPPGTGKSYLAKAVATEANSTFFSVSSSDLVSKWMGESEKLVKQLFAMARENKPSIIFIDEVDALTGTRGEGESEASRRIKTELLVQMNGVGNDSQGVLVLGATNIPWQLDSAIRRRFERRIYIPLPDLAARTTMFEINVGDTPCVLTKEDYRTLGAMTEGYSGSDIAVVVKDALMQPIRKIQSATHFKDVSTEDDETRKLTPCSPGDDGAIEMSWTDIEADELKEPDLTIKDFLKAIKSTRPTVNEDDLLKQEQFTRDFGQEGN
